This is an account of results in patent publication US20240043860A1, “NOVEL HYDROXYPHENYLPYRUVATE DIOXYGENASE POLYPEPTIDES AND METHODS OF USE THEREOF” (Syngenta Crop Protection AG, priority 2020, published 2024).

Certain results were filed several times, with different values. Only these are listed. There may be further records. Results that share an entry differ, and nothing given here explains why; they may come from other doses, times, organisms or constructs than stated.

The experiment has as its system transgenic tobacco plants expressing mutant HPPD SEQ ID NO: 122. The experiment is described as follows: spray test, herbicidal damage scoring. It counts as in vivo. The settings on record: Table 4.4; 7 days after treatment; SEQ ID NO: 122; 100=complete death, 0=no damage; one value per event.

As for `COc1ccc(-n2nc(C)cc(C(=O)C3C(=O)CCCC3=O)c2=O)cc1OC` [Herbicide C, dioxopyritrione], the “herbicidal damage scoring, Herbicide C (100 g/ha)” value is reported as 80, 35, 45.
